Measured data: PubChem BioAssay AID1259405 (NCATS, 2018)
Aim: 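Knock-downs that lift recombinant protein yield in hamster ovary cells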 (primary screen). Cells: Chinese hamster CHO-K1 ovary cells with stable secreted eGFP expression. Knock-down reagent: single siRNA against mouse genes, 0.8 pmol siRNA per well (2 µl of 400 nM stock). Time to read-out: 3 days. Read-out: 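Percent of the per-plate non-targeting control median for intracellular GFP per well by laser scanning cytometry and for cell viability by ATP luminescence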. Scale: GFP, % of control: higher = more GFP per well, higher productivity; viability (ATP), % of control: higher = more viable cells (more ATP). Active means: 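Called active when intracellular GFP, relative to negative control, is at or above 120%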.
This is an unselected part of about 50,000 reagents. About 4,000 of them (8%) were called active. 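Mouse siRNA library applied to hamster cells; one well for each siRNA.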 Unmarked entries are inactive. The numbers tell different reagents against one gene apart.

| gene symbol | siRNA no. | GFP, % of control | viability (ATP), % of control |
| --- | --- | --- | --- |
| Grm6 | 1 | 54 | 60.9 |
| Grm6 | 2 | 76 | 83.6 |
| Grm6 | 3 | 71.6 | 54.6 |
| Or14c46 | 1 | 39.9 | 25.6 |
| Or14c46 | 2 | 85 | 67.7 |
| Or14c46 | 3 | 96.5 | 59.7 |
| Lbh | 1 | 67.8 | 71.9 |
| Lbh | 2 | 52.7 | 48.8 |
| Lbh | 3 | 96.8 | 71.4 |
| Man1c1 | 1 | 139 (active) | 104 |
| Man1c1 | 2 | 58.3 | 62 |
| Man1c1 | 3 | 61.4 | 91.7 |
| Tsga8 | 1 | 161 (active) | 70.4 |
| Tsga8 | 2 | 13.6 | 18.1 |
| Tsga8 | 3 | 72.7 | 106 |
| Pik3r2 | 1 | 84.2 | 95 |
| Pik3r2 | 2 | 180 (active) | 90 |
| Gpank1 | 1 | 67 | 56 |
| Gpank1 | 2 | 77.8 | 68.6 |
| Gpank1 | 3 | 230 (active) | 126 |
| Zbtb9 | 1 | 72.3 | 66.4 |
| Zbtb9 | 2 | 66.3 | 88.4 |
| Zbtb9 | 3 | 75.1 | 101 |
| Set | 1 | 61.6 | 49.5 |
| Set | 2 | 45.5 | 46.6 |
| Set | 3 | 128 (active) | 91.3 |
| F8 | 1 | 128 (active) | 95.2 |
| F8 | 2 | 29.7 | 37.5 |
| F8 | 3 | 86.1 | 77.6 |
| Mmp1a | 1 | 85.1 | 125 |
| Mmp1a | 2 | 63 | 67.2 |
| Or14c41 | 1 | 57.6 | 30.6 |
| Or14c41 | 2 | 88 | 68 |
| Or14c41 | 3 | 61.3 | 85.8 |
| L3mbtl3 | 1 | 94.7 | 97.2 |
| L3mbtl3 | 2 | 138 (active) | 95.1 |
| L3mbtl3 | 3 | 58.5 | 33.6 |
| Tex13c3 | 1 | 58.3 | 63.7 |
| Tex13c3 | 2 | 71.1 | 73.8 |
| Tex13c3 | 3 | 75.2 | 51.6 |
| Alx1 | 1 | 115 | 96 |
| Alx1 | 2 | 28.1 | 44.8 |
| Alx1 | 3 | 54.5 | 60 |
| Tmod3 | 1 | 63.9 | 67.8 |
| Tmod3 | 2 | 72.3 | 45.8 |
| Tmod3 | 3 | 41.6 | 47.2 |
| Crygs | 1 | 99.1 | 104 |
| Crygs | 2 | 78.7 | 71.5 |
| Crygs | 3 | 135 (active) | 114 |
| Ap1b1 | 1 | 109 | 137 |
| Ap1b1 | 2 | 91.1 | 79.1 |
| E2f5 | 1 | 84.7 | 85.3 |
| E2f5 | 2 | 92.9 | 87.4 |
| Katnal2 | 1 | 122 (active) | 96.2 |
| Katnal2 | 2 | 95.1 | 84.4 |
| Katnal2 | 3 | 64.1 | 53.5 |
| Adgrb1 | 1 | 129 (active) | 84.9 |
| Adgrb1 | 2 | 79.3 | 68.1 |
| Adgrb1 | 3 | 65.2 | 59.9 |
| Anapc16 | 1 | 66.1 | 77.9 |
| Anapc16 | 2 | 54.1 | 56.3 |
| Anapc16 | 3 | 86.9 | 136 |
| Unc80 | 1 | 33.3 | 50.9 |
| Unc80 | 2 | 49 | 81.8 |
| Unc80 | 3 | 102 | 101 |
| Ppia | 1 | 53.9 | 50.8 |
| Ppia | 2 | 74.2 | 81.9 |
| Ppia | 3 | 63.9 | 56.3 |
| Or52a5 | 1 | 81.1 | 71.3 |
| Or52a5 | 2 | 66 | 27.1 |
| Or52a5 | 3 | 59.4 | 134 |
| Zfp64 | 1 | 75.1 | 48.9 |
| Zfp64 | 2 | 95.9 | 82.1 |
| Tacc1 | 1 | 122 (active) | 73.7 |
| Tacc1 | 2 | 66.7 | 63.1 |
| Tacc1 | 3 | 83.8 | 103 |
| Ano9 | 1 | 90.8 | 64.8 |
| Ano9 | 2 | 95.9 | 91.5 |
| Ano9 | 3 | 148 (active) | 131 |
| Gm5533 | 1 | 79 | 80.3 |
| Gm5533 | 2 | 97.8 | 65.1 |
| Gm5533 | 3 | 50.5 | 43.8 |
| Tnip1 | 1 | 61.8 | 57.9 |
| Tnip1 | 2 | 96.4 | 147 |
| Tnip1 | 3 | 130 (active) | 132 |
| Tnxb | 1 | 140 (active) | 63.5 |
| Tnxb | 2 | 92.3 | 88.2 |
| C130074G19Rik | 1 | 36.2 | 57.6 |
| C130074G19Rik | 2 | 71.8 | 87.4 |
| C130074G19Rik | 3 | 88.9 | 78.7 |
| Pikfyve | 1 | 81.9 | 101 |
| Pikfyve | 2 | 124 (active) | 105 |
| Pikfyve | 3 | 82.2 | 74.7 |
| Tmem106a | 1 | 40.9 | 36.7 |
| Tmem106a | 2 | 97.3 | 76.3 |
| Tmem106a | 3 | 126 (active) | 114 |
| C130073F10Rik | 1 | 54.9 | 60.3 |
| C130073F10Rik | 2 | 69.7 | 77.7 |
| C130073F10Rik | 3 | 142 (active) | 118 |
| Csgalnact2 | 1 | 89.1 | 88.3 |
| Csgalnact2 | 2 | 61 | 131 |
| Csgalnact2 | 3 | 91.9 | 81.5 |
| Oit3 | 1 | 76.5 | 79.6 |
| Oit3 | 2 | 90.9 | 95 |
| Oit3 | 3 | 61.1 | 80.6 |
| Spats1 | 1 | 152 (active) | 92.4 |
| Spats1 | 2 | 83.3 | 119 |
| Spats1 | 3 | 111 | 130 |

Look-ups from above:
Under “viability (ATP), % of control”, Pikfyve #2 is entered as 105 (active)
Oit3 #2, GFP, % of control → 90.9
Value for Adgrb1 #1 under “GFP, % of control”: 129 (active)
For “viability (ATP), % of control”, F8 #2 shows 37.5
Result for Tex13c3 #2 under “GFP, % of control”: 71.1
Under “GFP, % of control”, Tex13c3 #1 has 58.3
